According to US20250333440A1, “Azole Tripeptides as Vasodilators” (University of Kansas, priority 2024, published 2025):
At least one structure is not confirmed: it was looked up by name or label, or the drawing left a doubt.

Test system: blood vessels in the CAM
Experiment: chick chorioallantoic membrane assay (CAM), vasculature analysed with NIH ImageJ
Format: in vivo, Brown Leghorn chicken embryos
Conditions: for vessel diameter versus DMSO, time course: 40 μM (0.91 mg/Kg)
Experimental: At day 2, the egg was carefully cleaned with isopropanol again and a small opening was carved near its air sac through which approximately 3 mL of albumin was removed. The opening was sealed with medical tape and a larger square opening of approximately 1×1 cm was carved near the center of the egg using a Dremer Stylo+ tool. The egg was further cleaned in order to remove debris and the eggshell membrane was carefully removed using sterilized tweezers. The opening was sealed using clear tape and the eggs were incubated for four more days under the same conditions after disabling the auto-turning mechanism of the incubator.
The tape covering the opening in the egg was carefully removed and the disc was carefully placed on top of the chorioallantoic membrane (e.g., CAM) using sterilized tweezers, then the opening was resealed, and the eggs were placed again in the incubator.
The paper disc was carefully removed, and the CAM was photographed. For the Miles assay approximately 100 μl of a 1% w/v solution of Evans Blue dye was injected in the CAM and infiltration of the dye into the blood vessels was analyzed using an Andonstar digital microscope equipped with a 60× magnification lens. If the dye infiltrated the blood vessels the test was considered positive. The photographs were later cropped to include only the CAM and analyzed using the NIH ImageJ software package as follows.
To analyze the extent of branching the blood vessels were carefully traced in order for the ImageJ software to be able to distinguish them for the background. The traced images were opened on the ImageJ software, converted into an 8 bit image and the threshold was adjusted to exclude any possible background signal. This process gave a binary (black and white) map of the vasculature which was then skeletonized (converted into a 1 pixel wide map) and the skeleton was analyzed to determine the number of branches and junction voxels (pixels connected to more than 2 other pixels, i.e. pixels in which the map divides).
To analyze the vascular length density and vascular density the cropped image was opened on the ImageJ software, and the Mexican Hat filter plugin was applied using a radius of 5.0. After this, the image was made binary and the Vascular Density function of the Vessel Analysis plugin was used to determine both parameters after carefully tracing the image so that only the CAM area was included on the calculation.
To analyze the vessel the cropped image was opened on the ImageJ software, and the Mexican Hat filter plugin was applied using a radius of 5.0.

[1] = 40 μM, 24 h after administration

Q: Which results are given for `COC(=O)[C@H](Cn1cncn1)NC(=O)[C@H](Cn1nnnc1C)NC(=O)[C@H](Cn1nnc2ccccc21)NC(=O)C(F)(F)F` [Compound 1, methyl (S)-2-((S)-2-((S)-3-(1H-benzo[d][1,2,3]triazol-1-yl)-2-(2,2,2-trifluoroacetamido)propanamido)-3-(5-methyl-1H-tetrazol-1-yl)propanamido)-3-(1H-1,2,4-triazol-1-yl)propanoate]?
A: effect on vessel diameter (increase seen at 40 μM) (4 μM dose (0.09 mg/Kg), 24 h): lost; effect on vessel length density (decrease seen at 40 μM) (4 μM dose (0.09 mg/Kg), 24 h): lost; vessel diameter versus DMSO, time course (1 h after administration (p<0.05)): modest increase; vessel diameter versus DMSO, time course (6 h after administration (not significant)): modest increase; vessel diameter versus DMSO, time course (12 h after administration): receded; vessel diameter versus DMSO, time course (48 h after administration): receded back to baseline levels; effect on branching compared to DMSO control [1]: did not affect; effect on vascular density (VD) compared to DMSO control [1]: did not affect
